# ± gives the standard deviation of the averaged measurements.
# Tested on: Tasmanian devil fibroblasts
# Assay: cell viability, percent of DMSO control (CellTiter-Glo); higher = more viable cells
# Conditions: 72 h
# Experimental: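 Eight-point dose titration of 41 screen hits in triplicate wells on four Tasmanian devil DFTD tumour cell lines (T1-T4) and devil fibroblasts, 384-well plates. Viability was read by CellTiter-Glo (ATP) after 72 h at 37 °C. Percent of control per plate: DMSO wells = 100%, positive-control wells = 0%.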
smiles,measurement,setting,value
COc1cc2ncnc(Nc3cccc(Cl)c3F)c2cc1OC(=O)N1CCN(C)C[C@H]1C [AZD3759],cell viability,0.00617 µM,95.5 ± 9.6%
same,cell viability,0.0185 µM,93.3 ± 10%
same,cell viability,0.0556 µM,124 ± 30%
same,cell viability,0.166667 µM,154 ± 33%
same,cell viability,0.5 µM,87.1 ± 14%
same,cell viability,1.5 µM,81.4 ± 8.4%
same,cell viability,4.5 µM,85.1 ± 6.9%
same,cell viability,13.5 µM,127 ± 13%
CC#CC(=O)Nc1ccc2ncnc(Nc3cccc(Br)c3)c2c1,cell viability,0.00617 µM,93.7 ± 31%
same,cell viability,0.0185 µM,97 ± 15%
same,cell viability,0.0556 µM,113 ± 50%
same,cell viability,0.166667 µM,78 ± 4%
same,cell viability,0.5 µM,96.9 ± 21%
same,cell viability,1.5 µM,83 ± 16%
same,cell viability,4.5 µM,70.8 ± 9.4%
same,cell viability,13.5 µM,102 ± 20%
C=CC(=O)N1CCC(Oc2cc3c(Nc4ccc(Cl)c(Cl)c4F)ncnc3cc2OC)CC1 [Poziotinib (HM781-36B)],cell viability,0.00617 µM,138 ± 38%
same,cell viability,0.0185 µM,106 ± 24%
same,cell viability,0.0556 µM,99.5 ± 15%
same,cell viability,0.166667 µM,113 ± 17%
same,cell viability,0.5 µM,123 ± 47%
same,cell viability,1.5 µM,72.9 ± 5.9%
same,cell viability,4.5 µM,75.5 ± 5%
same,cell viability,13.5 µM,6.96 ± 8.4%
COc1cccc2c1C(=O)c1c(O)c3c(c(O)c1C2=O)C[C@@](O)(C(=O)CO)C[C@@H]3O[C@H]1C[C@H](N)[C@@H](O)[C@H](C)O1.Cl,cell viability,0.00617 µM,147 ± 23%
same,cell viability,0.0185 µM,135 ± 73%
same,cell viability,0.0556 µM,139 ± 54%
same,cell viability,0.166667 µM,116 ± 6.9%
same,cell viability,0.5 µM,100 ± 25%
same,cell viability,1.5 µM,69.7 ± 6.3%
same,cell viability,4.5 µM,56.7 ± 2.8%
same,cell viability,13.5 µM,11.7 ± 6.8%
COc1cc2ncnc(Nc3ccc(F)c(Cl)c3)c2cc1NC(=O)/C=C/CN1CCCCC1,cell viability,0.00617 µM,104 ± 12%
same,cell viability,0.0185 µM,122 ± 57%
same,cell viability,0.0556 µM,118 ± 4%
same,cell viability,0.166667 µM,107 ± 19%
same,cell viability,0.5 µM,99.7 ± 1.9%
same,cell viability,1.5 µM,102 ± 14%
same,cell viability,4.5 µM,131 ± 56%
same,cell viability,13.5 µM,144 ± 10%
COc1cccc2c1C(=O)c1c(O)c3c(c(O)c1C2=O)C[C@@](O)(C(=O)CO)C[C@@H]3O[C@H]1C[C@H](N)[C@H](O)[C@H](C)O1.Cl,cell viability,0.00617 µM,126 ± 29%
same,cell viability,0.0185 µM,129 ± 33%
same,cell viability,0.0556 µM,105 ± 33%
same,cell viability,0.166667 µM,146 ± 58%
same,cell viability,0.5 µM,107 ± 33%
same,cell viability,1.5 µM,86.2 ± 10%
same,cell viability,4.5 µM,81.4 ± 21%
same,cell viability,13.5 µM,39.4 ± 19%
Cn1cnc2c(F)c(Nc3ccc(Br)cc3Cl)c(C(=O)NOCCO)cc21.O=S(=O)(O)O [Selumetinib (AZD6244)],cell viability,0.00617 µM,94.7 ± 16%
same,cell viability,0.0185 µM,113 ± 37%
same,cell viability,0.0556 µM,118 ± 66%
same,cell viability,0.166667 µM,86.1 ± 9%
same,cell viability,0.5 µM,86.2 ± 10%
same,cell viability,1.5 µM,89 ± 13%
same,cell viability,4.5 µM,65.2 ± 35%
same,cell viability,13.5 µM,49 ± 8.7%
COc1cc2ncnc(Nc3cccc(Br)c3)c2cc1OC.Cl,cell viability,0.00617 µM,140 ± 27%
same,cell viability,0.0185 µM,85 ± 4.5%
same,cell viability,0.0556 µM,96.3 ± 9.2%
same,cell viability,0.166667 µM,118 ± 11%
same,cell viability,0.5 µM,120 ± 52%
same,cell viability,1.5 µM,89 ± 6.8%
same,cell viability,4.5 µM,89.7 ± 11%
same,cell viability,13.5 µM,102 ± 23%
CN(C)C/C=C/C(=O)Nc1cc2c(Nc3ccc(F)c(Cl)c3)ncnc2cc1O[C@H]1CCOC1 [Afatinib (BIBW2992)],cell viability,0.00617 µM,122 ± 80%
same,cell viability,0.0185 µM,114 ± 51%
same,cell viability,0.0556 µM,106 ± 63%
same,cell viability,0.166667 µM,100 ± 19%
same,cell viability,0.5 µM,141 ± 31%
same,cell viability,1.5 µM,109 ± 35%
same,cell viability,4.5 µM,96.7 ± 45%
same,cell viability,13.5 µM,-4.62 ± 4.9%
CCOc1cc2ncc(C#N)c(Nc3ccc(OCc4ccccn4)c(Cl)c3)c2cc1NC(=O)/C=C/CN(C)C [Neratinib(HKI-272)],cell viability,0.00617 µM,91.2 ± 4%
same,cell viability,0.0185 µM,97.2 ± 9.5%
same,cell viability,0.0556 µM,146 ± 46%
same,cell viability,0.166667 µM,118 ± 32%
same,cell viability,0.5 µM,116 ± 17%
same,cell viability,1.5 µM,105 ± 7.2%
same,cell viability,4.5 µM,126 ± 36%
same,cell viability,13.5 µM,126 ± 28%
"C=CC(=O)Nc1cccc(Nc2nc(Nc3ccc(N4CCN(C(C)=O)CC4)cc3OC)ncc2C(F)(F)F)c1 [Rociletinib (CO-1686, AVL-301)]",cell viability,0.00617 µM,134 ± 32%
same,cell viability,0.0185 µM,133 ± 63%
same,cell viability,0.0556 µM,121 ± 47%
same,cell viability,0.166667 µM,109 ± 14%
same,cell viability,0.5 µM,104 ± 14%
same,cell viability,1.5 µM,77.7 ± 18%
same,cell viability,4.5 µM,91.5 ± 11%
same,cell viability,13.5 µM,39.4 ± 4.7%
Cc1cc(Nc2ncnc3ccc(NC4=NC(C)(C)CO4)cc23)ccc1Oc1ccn2ncnc2c1 [Irbinitinib(ARRY-380; ONT-380)],cell viability,0.00617 µM,82.5 ± 13%
same,cell viability,0.0185 µM,110 ± 44%
same,cell viability,0.0556 µM,98.9 ± 19%
same,cell viability,0.166667 µM,102 ± 35%
same,cell viability,0.5 µM,89 ± 6.6%
same,cell viability,1.5 µM,108 ± 18%
same,cell viability,4.5 µM,109 ± 22%
same,cell viability,13.5 µM,143 ± 54%
COCCn1c2c([n+](Cc3cnccn3)c1C)C(=O)c1ccccc1C2=O.[Br-] [YM155],cell viability,0.00617 µM,112 ± 12%
same,cell viability,0.0185 µM,108 ± 52%
same,cell viability,0.0556 µM,119 ± 42%
same,cell viability,0.166667 µM,106 ± 23%
same,cell viability,0.5 µM,119 ± 32%
same,cell viability,1.5 µM,95.1 ± 6.8%
same,cell viability,4.5 µM,113 ± 25%
same,cell viability,13.5 µM,114 ± 12%
CS(=O)(=O)CCNCc1ccc(-c2ccc3ncnc(Nc4ccc(OCc5cccc(F)c5)c(Cl)c4)c3c2)o1 [Lapatinib],cell viability,0.0123 µM,88.6 ± 7.5%
same,cell viability,0.037 µM,109 ± 28%
same,cell viability,0.111111111 µM,98.5 ± 17%
same,cell viability,0.333333 µM,107 ± 5.8%
same,cell viability,1 µM,93.6 ± 2.8%
same,cell viability,3 µM,128 ± 50%
same,cell viability,9 µM,88.7 ± 14%
same,cell viability,27 µM,101 ± 37%
CC(C)(C)P(=NC(=S)NCCCO)(N1CCCCCC1)N1CCCCCC1 [T0503-0280],cell viability,0.00617 µM,100 ± 17%
same,cell viability,0.0185 µM,84.4 ± 19%
same,cell viability,0.0556 µM,136 ± 39%
same,cell viability,0.166667 µM,159 ± 21%
same,cell viability,0.5 µM,108 ± 12%
same,cell viability,1.5 µM,88.7 ± 7.4%
same,cell viability,4.5 µM,91.5 ± 13%
same,cell viability,13.5 µM,216 ± 46%
COc1cc2ncnc(Nc3ccc(O)c(Br)c3)c2cc1OC [WHI-P154],cell viability,0.00617 µM,78.7 ± 20%
same,cell viability,0.0185 µM,135 ± 42%
same,cell viability,0.0556 µM,109 ± 26%
same,cell viability,0.166667 µM,97.2 ± 3.7%
same,cell viability,0.5 µM,95.9 ± 13%
same,cell viability,1.5 µM,114 ± 46%
same,cell viability,4.5 µM,86.5 ± 1.5%
same,cell viability,13.5 µM,84 ± 6.9%
CCS(=O)(=O)c1cccc(-c2cc(C(=O)NC3CCN(C)CC3)c(C)c3[nH]c4ncc(C)cc4c23)c1 [TAK901],cell viability,0.00617 µM,100 ± 15%
same,cell viability,0.0185 µM,101 ± 7.9%
same,cell viability,0.0556 µM,104 ± 26%
same,cell viability,0.166667 µM,116 ± 44%
same,cell viability,0.5 µM,132 ± 68%
same,cell viability,1.5 µM,91.2 ± 2.8%
same,cell viability,4.5 µM,132 ± 12%
same,cell viability,13.5 µM,123 ± 36%
Cn1nc(-c2ccccn2)nc2c(=O)n(C)c(=O)nc1-2,cell viability,0.00617 µM,138 ± 50%
same,cell viability,0.0185 µM,106 ± 3.6%
same,cell viability,0.0556 µM,94.2 ± 12%
same,cell viability,0.166667 µM,120 ± 16%
same,cell viability,0.5 µM,116 ± 33%
same,cell viability,1.5 µM,103 ± 12%
same,cell viability,4.5 µM,98.7 ± 6%
same,cell viability,13.5 µM,3.56 ± 4.2%

# Some of the entries above, set out differently:
smiles	measurement	setting	value
C=CC(=O)Nc1cccc(Nc2nc(Nc3ccc(N4CCN(C(C)=O)CC4)cc3OC)ncc2C(F)(F)F)c1 [Rociletinib (CO-1686, AVL-301)]	cell viability	13.5 µM	39.4 ± 4.7%
Cc1cc(Nc2ncnc3ccc(NC4=NC(C)(C)CO4)cc23)ccc1Oc1ccn2ncnc2c1 [Irbinitinib(ARRY-380; ONT-380)]	cell viability	0.00617 µM	82.5 ± 13%
same	cell viability	0.0185 µM	110 ± 44%
same	cell viability	0.0556 µM	98.9 ± 19%
same	cell viability	0.166667 µM	102 ± 35%
same	cell viability	0.5 µM	89 ± 6.6%
same	cell viability	1.5 µM	108 ± 18%
same	cell viability	4.5 µM	109 ± 22%
same	cell viability	13.5 µM	143 ± 54%
COCCn1c2c([n+](Cc3cnccn3)c1C)C(=O)c1ccccc1C2=O.[Br-] [YM155]	cell viability	0.00617 µM	112 ± 12%
same	cell viability	0.0185 µM	108 ± 52%
same	cell viability	0.0556 µM	119 ± 42%
same	cell viability	0.166667 µM	106 ± 23%
same	cell viability	0.5 µM	119 ± 32%
same	cell viability	1.5 µM	95.1 ± 6.8%
same	cell viability	4.5 µM	113 ± 25%
same	cell viability	13.5 µM	114 ± 12%
CS(=O)(=O)CCNCc1ccc(-c2ccc3ncnc(Nc4ccc(OCc5cccc(F)c5)c(Cl)c4)c3c2)o1 [Lapatinib]	cell viability	0.0123 µM	88.6 ± 7.5%
same	cell viability	0.037 µM	109 ± 28%
same	cell viability	0.111111111 µM	98.5 ± 17%
same	cell viability	0.333333 µM	107 ± 5.8%
same	cell viability	1 µM	93.6 ± 2.8%
same	cell viability	3 µM	128 ± 50%
same	cell viability	9 µM	88.7 ± 14%
same	cell viability	27 µM	101 ± 37%
CC(C)(C)P(=NC(=S)NCCCO)(N1CCCCCC1)N1CCCCCC1 [T0503-0280]	cell viability	0.00617 µM	100 ± 17%
same	cell viability	0.0185 µM	84.4 ± 19%
same	cell viability	0.0556 µM	136 ± 39%
same	cell viability	0.166667 µM	159 ± 21%
same	cell viability	0.5 µM	108 ± 12%
same	cell viability	1.5 µM	88.7 ± 7.4%
same	cell viability	4.5 µM	91.5 ± 13%
same	cell viability	13.5 µM	216 ± 46%
COc1cc2ncnc(Nc3ccc(O)c(Br)c3)c2cc1OC [WHI-P154]	cell viability	0.00617 µM	78.7 ± 20%
